Results are given in words; binding and its absence hold for the method and conditions named. In cells and extracts the contact can be indirect. Some results given as binding are weak or reduced against the parent protein; the word gives no strength. Sequences can lack the tags named with a protein.

The assay has as its target T1, GST-fused version of a 706–814 amino-acid region of human Bicaudal D2 (BICD2) (human) (UniProt Q8TD16).
T1 sequence: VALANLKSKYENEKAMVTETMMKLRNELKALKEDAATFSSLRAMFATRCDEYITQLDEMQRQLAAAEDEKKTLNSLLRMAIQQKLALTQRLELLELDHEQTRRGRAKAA
Put plainly: pull-down; GST-BICD2 immobilised on glutathione beads, incubated 45 min with cleared lysate of fission yeast expressing FLAG-Ryh1 (control and pmk1Δ, grown in YES and starved for glucose); PBS with 10 mM MgCl2 and 0.5% Tween 20; bound Ryh1 detected by anti-FLAG blot; only the target purified.

B1: N-terminal FLAG-tagged Ryh1 (protein, UniProt P17608 1-201)
chain: MSENYSFSLRKFKLVFLGEQSVGKTSLITRFMYDQFDNTYQATIGIDFLSKTMYLEDRTVRLQLWDTAGQERFRSLIPSYIRDSSVAIIVYDITNHNSFVNTEKWIEDVRAERGDDVIIVLVGNKTDLADKRQVTQEEGEKKAKELKIMHMETSAKAGHNVKLLFRKIAQMLPGMENVETQSTQMIDVSIQPNENESSCNC
With B1, the binding entry is “binds”.

(Values after publication PMC5120329.)
